The values that follow come from PMC7035669.

By UniProt entry, the sequences of proteins in these tests, tags left out. Where a name states a change or a piece, a line headed by the entry shows the natural chain unless it says otherwise. Chains listed by the source or under a name are the forms on record and can include a tag or linker. Residues count along the entry.
UniProt P05556, residues 752-798: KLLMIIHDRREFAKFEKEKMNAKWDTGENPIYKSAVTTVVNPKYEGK
Full length human FLNA with C-terminal GFP, C2160R (P21333-1, form named): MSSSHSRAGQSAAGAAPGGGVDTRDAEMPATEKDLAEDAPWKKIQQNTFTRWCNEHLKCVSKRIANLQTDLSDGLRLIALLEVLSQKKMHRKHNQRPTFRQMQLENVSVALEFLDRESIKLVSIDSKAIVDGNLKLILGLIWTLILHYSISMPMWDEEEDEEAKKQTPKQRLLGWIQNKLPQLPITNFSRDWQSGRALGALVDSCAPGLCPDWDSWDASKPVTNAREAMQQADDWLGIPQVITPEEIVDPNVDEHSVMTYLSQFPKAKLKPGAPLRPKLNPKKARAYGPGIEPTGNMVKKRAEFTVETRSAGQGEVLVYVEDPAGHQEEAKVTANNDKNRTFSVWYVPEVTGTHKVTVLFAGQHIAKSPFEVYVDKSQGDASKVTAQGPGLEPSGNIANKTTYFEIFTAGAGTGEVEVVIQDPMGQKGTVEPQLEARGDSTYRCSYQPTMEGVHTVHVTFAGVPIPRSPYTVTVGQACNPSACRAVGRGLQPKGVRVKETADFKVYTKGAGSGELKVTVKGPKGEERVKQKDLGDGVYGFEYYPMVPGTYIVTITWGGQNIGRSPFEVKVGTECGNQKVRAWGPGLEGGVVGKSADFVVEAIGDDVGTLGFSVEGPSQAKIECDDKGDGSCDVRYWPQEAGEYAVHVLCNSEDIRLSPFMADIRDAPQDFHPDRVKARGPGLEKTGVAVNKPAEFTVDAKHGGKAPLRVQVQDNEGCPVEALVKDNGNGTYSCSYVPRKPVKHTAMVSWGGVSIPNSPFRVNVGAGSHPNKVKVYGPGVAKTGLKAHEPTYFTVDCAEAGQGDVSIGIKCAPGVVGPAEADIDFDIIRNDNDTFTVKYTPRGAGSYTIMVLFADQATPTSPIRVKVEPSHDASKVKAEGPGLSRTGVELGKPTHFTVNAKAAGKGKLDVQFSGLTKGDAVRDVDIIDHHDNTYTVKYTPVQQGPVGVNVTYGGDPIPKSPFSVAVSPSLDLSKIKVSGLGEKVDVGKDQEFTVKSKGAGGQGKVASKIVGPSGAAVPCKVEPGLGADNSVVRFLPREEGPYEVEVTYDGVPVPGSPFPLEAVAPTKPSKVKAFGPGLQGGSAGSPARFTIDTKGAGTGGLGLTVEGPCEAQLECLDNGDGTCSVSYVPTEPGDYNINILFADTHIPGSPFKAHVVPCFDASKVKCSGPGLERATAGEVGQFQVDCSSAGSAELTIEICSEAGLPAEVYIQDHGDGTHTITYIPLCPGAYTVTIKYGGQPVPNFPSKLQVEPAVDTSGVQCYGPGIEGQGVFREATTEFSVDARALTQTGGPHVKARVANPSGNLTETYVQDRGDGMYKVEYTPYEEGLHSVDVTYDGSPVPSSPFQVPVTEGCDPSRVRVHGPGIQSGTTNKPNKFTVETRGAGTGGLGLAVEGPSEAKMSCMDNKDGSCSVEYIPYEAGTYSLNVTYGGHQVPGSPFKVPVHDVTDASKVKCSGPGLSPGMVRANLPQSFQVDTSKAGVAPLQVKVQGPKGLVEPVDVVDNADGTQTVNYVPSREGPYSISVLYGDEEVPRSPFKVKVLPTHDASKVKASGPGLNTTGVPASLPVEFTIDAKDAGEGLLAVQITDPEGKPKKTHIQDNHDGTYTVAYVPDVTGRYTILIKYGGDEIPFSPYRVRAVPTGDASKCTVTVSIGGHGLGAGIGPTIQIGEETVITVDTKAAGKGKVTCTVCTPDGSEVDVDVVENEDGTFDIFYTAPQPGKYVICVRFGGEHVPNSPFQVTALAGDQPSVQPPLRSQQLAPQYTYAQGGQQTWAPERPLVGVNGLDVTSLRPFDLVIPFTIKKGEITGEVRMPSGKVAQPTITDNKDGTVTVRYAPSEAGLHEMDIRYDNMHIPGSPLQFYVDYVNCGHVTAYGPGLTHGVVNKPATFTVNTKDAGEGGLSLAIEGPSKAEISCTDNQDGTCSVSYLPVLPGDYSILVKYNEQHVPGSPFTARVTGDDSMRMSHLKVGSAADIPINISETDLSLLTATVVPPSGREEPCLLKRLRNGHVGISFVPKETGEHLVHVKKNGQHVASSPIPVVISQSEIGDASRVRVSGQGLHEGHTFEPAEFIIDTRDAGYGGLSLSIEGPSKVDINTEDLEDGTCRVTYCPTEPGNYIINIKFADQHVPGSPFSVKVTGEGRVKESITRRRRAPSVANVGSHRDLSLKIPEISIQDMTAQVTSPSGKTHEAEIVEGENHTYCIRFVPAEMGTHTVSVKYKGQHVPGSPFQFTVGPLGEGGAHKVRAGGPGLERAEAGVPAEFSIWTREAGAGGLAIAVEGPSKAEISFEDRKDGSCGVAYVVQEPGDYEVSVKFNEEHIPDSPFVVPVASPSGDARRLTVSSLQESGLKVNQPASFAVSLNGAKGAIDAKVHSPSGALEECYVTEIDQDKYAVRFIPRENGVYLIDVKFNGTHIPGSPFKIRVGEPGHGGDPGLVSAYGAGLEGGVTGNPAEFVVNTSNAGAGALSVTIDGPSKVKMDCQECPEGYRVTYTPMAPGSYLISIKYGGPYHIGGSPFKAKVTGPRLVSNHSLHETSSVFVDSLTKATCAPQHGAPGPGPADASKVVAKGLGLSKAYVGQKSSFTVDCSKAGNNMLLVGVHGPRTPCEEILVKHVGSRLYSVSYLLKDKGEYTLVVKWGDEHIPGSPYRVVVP
Full length human FLNA with C-terminal GFP, G2236E (P21333-1, form named): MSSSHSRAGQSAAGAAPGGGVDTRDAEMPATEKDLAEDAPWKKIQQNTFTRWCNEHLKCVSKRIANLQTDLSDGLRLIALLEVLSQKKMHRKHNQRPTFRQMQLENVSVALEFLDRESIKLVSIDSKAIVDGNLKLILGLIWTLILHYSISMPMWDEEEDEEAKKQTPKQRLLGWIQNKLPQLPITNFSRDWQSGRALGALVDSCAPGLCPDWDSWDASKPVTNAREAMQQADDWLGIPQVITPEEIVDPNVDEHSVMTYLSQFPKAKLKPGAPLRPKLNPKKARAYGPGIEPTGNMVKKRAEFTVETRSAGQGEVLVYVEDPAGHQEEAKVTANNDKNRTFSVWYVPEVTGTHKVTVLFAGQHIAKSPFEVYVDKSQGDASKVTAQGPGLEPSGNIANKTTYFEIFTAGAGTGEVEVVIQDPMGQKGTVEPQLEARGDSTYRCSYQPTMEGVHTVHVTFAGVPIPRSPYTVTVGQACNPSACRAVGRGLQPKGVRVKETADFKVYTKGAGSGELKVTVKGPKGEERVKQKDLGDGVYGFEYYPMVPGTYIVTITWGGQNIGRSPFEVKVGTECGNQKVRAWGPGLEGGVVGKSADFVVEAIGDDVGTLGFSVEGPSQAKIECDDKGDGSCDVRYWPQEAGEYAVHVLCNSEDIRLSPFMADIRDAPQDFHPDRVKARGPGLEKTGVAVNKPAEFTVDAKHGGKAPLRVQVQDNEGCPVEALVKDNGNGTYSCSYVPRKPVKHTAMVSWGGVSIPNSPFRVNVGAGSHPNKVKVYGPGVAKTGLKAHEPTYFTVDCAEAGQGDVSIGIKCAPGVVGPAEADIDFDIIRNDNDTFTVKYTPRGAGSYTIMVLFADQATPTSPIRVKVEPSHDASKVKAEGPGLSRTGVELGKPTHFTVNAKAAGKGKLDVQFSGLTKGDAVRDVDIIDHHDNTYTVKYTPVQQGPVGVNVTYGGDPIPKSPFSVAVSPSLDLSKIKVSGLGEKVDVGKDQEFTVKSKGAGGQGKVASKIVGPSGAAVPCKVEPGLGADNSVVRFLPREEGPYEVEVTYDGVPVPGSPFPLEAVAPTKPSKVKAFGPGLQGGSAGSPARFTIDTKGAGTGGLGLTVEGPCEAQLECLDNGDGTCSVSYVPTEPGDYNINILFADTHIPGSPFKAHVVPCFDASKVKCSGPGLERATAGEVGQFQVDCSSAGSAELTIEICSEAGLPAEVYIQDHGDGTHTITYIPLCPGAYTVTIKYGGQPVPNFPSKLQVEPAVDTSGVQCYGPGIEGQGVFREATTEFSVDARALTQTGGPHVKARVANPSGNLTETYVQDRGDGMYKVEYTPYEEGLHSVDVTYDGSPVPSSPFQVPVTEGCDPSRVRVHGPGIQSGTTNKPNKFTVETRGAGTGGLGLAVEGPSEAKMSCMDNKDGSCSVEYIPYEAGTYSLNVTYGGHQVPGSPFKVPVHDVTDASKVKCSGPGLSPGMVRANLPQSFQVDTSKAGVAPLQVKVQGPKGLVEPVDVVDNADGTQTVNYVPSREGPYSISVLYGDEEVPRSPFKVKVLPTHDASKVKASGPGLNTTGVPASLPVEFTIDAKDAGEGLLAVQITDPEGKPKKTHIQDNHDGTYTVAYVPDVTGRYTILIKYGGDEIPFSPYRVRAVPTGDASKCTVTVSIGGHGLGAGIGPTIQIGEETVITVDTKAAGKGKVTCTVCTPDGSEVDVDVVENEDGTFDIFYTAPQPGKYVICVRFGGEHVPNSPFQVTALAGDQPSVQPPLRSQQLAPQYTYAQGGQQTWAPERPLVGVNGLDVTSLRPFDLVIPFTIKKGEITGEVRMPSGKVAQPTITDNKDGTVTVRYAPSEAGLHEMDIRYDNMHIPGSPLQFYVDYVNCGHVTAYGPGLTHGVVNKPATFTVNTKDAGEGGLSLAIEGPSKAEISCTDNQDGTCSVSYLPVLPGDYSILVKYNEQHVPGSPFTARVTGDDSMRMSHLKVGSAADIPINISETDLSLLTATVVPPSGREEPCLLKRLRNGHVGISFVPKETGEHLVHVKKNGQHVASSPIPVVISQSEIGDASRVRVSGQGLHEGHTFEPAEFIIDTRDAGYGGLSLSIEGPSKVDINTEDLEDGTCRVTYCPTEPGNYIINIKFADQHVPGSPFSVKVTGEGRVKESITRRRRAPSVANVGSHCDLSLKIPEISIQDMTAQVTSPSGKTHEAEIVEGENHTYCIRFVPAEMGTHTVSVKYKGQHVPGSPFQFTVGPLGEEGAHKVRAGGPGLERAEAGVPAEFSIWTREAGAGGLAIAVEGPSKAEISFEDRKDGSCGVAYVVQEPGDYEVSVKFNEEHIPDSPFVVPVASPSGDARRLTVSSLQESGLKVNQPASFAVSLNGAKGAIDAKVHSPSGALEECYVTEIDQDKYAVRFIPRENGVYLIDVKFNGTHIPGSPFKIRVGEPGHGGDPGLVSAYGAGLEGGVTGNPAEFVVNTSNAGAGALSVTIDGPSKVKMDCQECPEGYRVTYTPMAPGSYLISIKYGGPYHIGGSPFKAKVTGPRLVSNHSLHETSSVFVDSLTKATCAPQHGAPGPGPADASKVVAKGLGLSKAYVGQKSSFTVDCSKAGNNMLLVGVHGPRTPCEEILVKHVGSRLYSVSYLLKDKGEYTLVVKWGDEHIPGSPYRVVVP

No constants are given. Whether binding was seen depends on the method and setting. In cells and extracts the contact can be indirect. Some results given as binding are weak or reduced against the parent protein; the word gives no strength.

The target of the assay is Integrin β1 (ITGβ1) cytoplasmic tail, wild type (UniProt P05556). Briefly: pull-down; ITGβ1 tails immobilised on beads; lysates of CHO cells transfected with full length FLNA-GFP; buffer XT with 10 mM imidazole, beads washed three times; only the target purified.
With “Full length human FLNA (Filamin A) with C-terminal GFP, wild type (from UniProt P21333-1 1-2647)”, the binding result is on record as “binds”.
“Full length human FLNA with C-terminal GFP, C2160R (from UniProt P21333-1 1-2647)”: the binding entry is “binds”.
In the case of “Full length human FLNA with C-terminal GFP, G2236E (from UniProt P21333-1 1-2647)” it was “binds”.
In the case of “Full length human FLNA with C-terminal GFP, I2144E (from UniProt P21333-1 1-2647)” it was “binds”; in that of “Full length human FLNA with C-terminal GFP, A1448V (from UniProt P21333-1 1-2647)”, “binds”.
